No constants are given. Whether binding was seen depends on the method and setting. In cells and extracts the contact can be indirect. Some results given as binding are weak or reduced against the parent protein; the word gives no strength. For part of these data: Tags and fused reporters may be left off the sequences shown.
Legend:
[1] = target: caspase 8 (human (endogenous in MIP101, RKO, MiaPaCa and MCF-7 cells)) (UniProt Q14790); test: co-IP; caspase 8 mutants (DEDIm, PBm, DEDIIm) transiently transfected into MIP/SP cells; co-IP with SPARC
[2] = target: caspase 8 (human (endogenous in MIP101, RKO, MiaPaCa and MCF-7 cells)) (UniProt Q14790); test: co-IP; as a4, read for rSPARC (added to the cells at 100 ng/mL) displacing Bcl2 from caspase 8; only the binder purified
[3] = target: caspase 8 (human (endogenous in MIP101, RKO, MiaPaCa and MCF-7 cells)) (UniProt Q14790); test: co-IP; as a6, read for peptide-NT (added to the cells) disrupting the caspase 8-Bcl2 interaction; only the binder purified

Sequences of proteins named here, by UniProt entry; tags and fusion partners are left off.
UniProt Q14790: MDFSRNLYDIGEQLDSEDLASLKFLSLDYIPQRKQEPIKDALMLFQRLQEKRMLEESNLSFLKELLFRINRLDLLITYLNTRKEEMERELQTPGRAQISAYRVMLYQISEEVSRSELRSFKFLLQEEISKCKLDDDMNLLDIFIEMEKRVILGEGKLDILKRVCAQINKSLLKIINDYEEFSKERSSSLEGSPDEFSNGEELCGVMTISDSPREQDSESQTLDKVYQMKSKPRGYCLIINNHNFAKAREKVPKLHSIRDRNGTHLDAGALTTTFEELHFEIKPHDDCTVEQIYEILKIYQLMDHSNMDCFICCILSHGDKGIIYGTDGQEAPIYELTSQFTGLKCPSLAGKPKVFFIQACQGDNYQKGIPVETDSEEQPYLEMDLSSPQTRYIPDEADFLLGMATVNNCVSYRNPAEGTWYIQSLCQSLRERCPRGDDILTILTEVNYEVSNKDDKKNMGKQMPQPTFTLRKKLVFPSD

B1: SPARC overexpressed in MIP/SP cells (protein, UniProt P09486 18-303)
chain: APQQEALPDETEVVEETVAEVTEVSVGANPVQVEVGEFDDGAEETEEEVVAENPCQNHHCKHGKVCELDENNTPMCVCQDPTSCPAPIGEFEKVCSNDNKTFDSSCHFFATKCTLEGTKKGHKLHLDYIGPCKYIPPCLDSELTEFPLRMRDWLKNVLVTLYERDEDNNLLTEKQKLRVKKIHENEKRLEAGDHPVELLARDFEKNYNMYIFPVHWQFGQLDQHPIDGYLSHTELAPLRAPLIPMEHCTTRFFETCDLDNDKYIALDEWAGCFGIKQKDIDKDLVI
With B1 the binding [1] was “binds”.

B2: Recombinant human SPARC (rSPARC) (protein, UniProt P09486 18-303)
chain: B1 chain
For B2, the binding [2] was “binds”.

B3: synthetic peptide of the N-terminus of SPARC (peptide-NT), tagged with a TAT peptide (peptide)
peptide: YGRKKRRQRRRAPQQEALPDETEVVEETVAEVTEVSVGANPVQVEVGEFDDGAEETEEEVVA
For B3, the binding [3] was “binds”.

From PMC3206029
